Reference: PubChem BioAssay AID662 (National Center for Advancing Translational Sciences (NCATS), 2007)
The list shows a part of the results. These are further read-outs of the screen, such as a control signal, another cell line or another target. No call is given for them. Most of these compounds were active or inconclusive in the main read-out, so they are no random draw. The note in brackets gives the kind of curve behind each potency; many fits are weak.

Assay: Cell signaling CRE-BLA (Fsk stim)
Conditions: CHO CRE-bla reporter (cAMP response element driving beta-lactamase), forskolin EC10, beta-lactamase ratio; measured here: 460 nm blue channel
Source text: NIH Molecular Libraries Screening Centers Network [MLSCN]
NIH Chemical Genomics Center [NCGC]
Assay Provider: Marshall W. Nirenberg, U.S. National heart lung & blood institute
Memories persist for different lengths of time, from seconds or minutes to a lifetime. There are two kinds of memory: short-term memory (STM) and long-term memory (LTM). STM lasts for minutes to hours, which maybe mediated by modifications of molecules involved in synaptic functions. LTM lasts for days or longer, and may be due to the formation of new synapses or restructuring of existing synapses. LTM, but not STM, requires gene transcription and synthesis of proteins. CREB (cyclic-AMP Responsive Element Binding Protein) is one of the candidates plays an important role for enhancement of some types of LTM. CREB, a family of transcription factors, regulates the transcription of genes containing cAMP Responsive Elements (CRE). CRE is a nucleotide sequence often found in the promoter regions of genes that are binding sites for CREB.
Using a beta-lactamase reporter-gene under control of cAMP responsive element, a cell-based assay [CellSensor(TM) CRE-bla CHO developed by Invitrogen Corp.] was used to measure forskolin-induced signaling. Library compounds were measured for their ability to modulate positively or negatively the action of EC10 NKH 477, a water soluble forskolin, on reporter gene activity. Compounds were screened in a titration series in 1536-well format. Positive and negative modulators were identified based on the AC50 values derived from the screening data.
NCGC Assay Protocol Summary
2000 cells/5uL in Opti-MEM medium containing 0.5% dialyzed FBS, 0.1 mM NEAA, 1 mM sodium pyruvate and 10 mM HEPES was dispensed into 1536-well plates and cells were cultured at 37 degrees Celsius overnight. […] And then the plates were incubated at 37 degrees Celsius for 3 hours. 1 uL of CCF4-dye mixture was added to each well. After incubated at room temperature for 2 hours the plates were measured on an EnVision plate reader at Excitation 405nm, Emission1=460nm and Emission 2=530nm. The %Activity was determined from the ratio of 460nm/530nm.
Keywords: NIH Roadmap, MLSCN, MLSMR, qHTS, NCGC, CRE, beta-lactamase reporter-gene assay.

Row | SMILES | AC50
1 | COc1ccccc1N1CCN(C(=O)CCNS(=O)(=O)c2ccc3c(c2)CCC(=O)N3)CC1 | 25.1 µM [falling, single point]
2 | O=C(O)c1cccc(NS(=O)(=O)c2ccc3nnn(O)c3c2)c1 | 0.00501 µM [falling, full curve, poor fit]
3 | CCC(C)NC(=O)c1cn(CC)c2ccc(S(=O)(=O)N(C)C)cc2c1=O (stereo not drawn) | 10 µM [rising, partial curve]
4 | COc1cc(-c2nc3cnccn3c2Nc2ccccc2)ccc1O | 5.01 µM [rising, partial curve]
5 | Cc1ccc(S(=O)(=O)N(CC(=O)NCc2ccco2)Cc2ccc(F)cc2)cc1 | 10 µM [falling, single point]
6 | C1CCN(c2nc3nonc3nc2N2CCCC2)C1 | 15.8 µM [rising, single point]
7 | COc1cccc(-c2nc(N(C)Cc3ccco3)c3ccccc3n2)c1 | 3.16 µM [rising, full curve]
8 | COc1ccc2cc1Oc1ccc(cc1)C[C@H]1c3cc(c(OC)cc3CCN1C)Oc1c(OC)c(OC)cc3c1[C@@H](C2)N(C)CC3 | 2.51 µM [rising, full curve]
9 | O=C(c1ccc(C#Cc2ccccc2)o1)N1CCN(c2ccccn2)CC1 | 25.1 µM [falling, single point]
10 | COC(=O)c1c(=O)n(O)c2ccc(OC)cc2[n+]1[O-] | 12.6 µM [falling, partial curve, poor fit]
11 | Cc1noc(C)c1-c1nc(Nc2ccccc2)c2ccccc2n1 | 2.51 µM [rising, full curve]
12 | Cc1ccc(-c2csc3nnc(SCC(=O)NCc4ccc5c(c4)OCO5)n23)cc1 | 10 µM [rising, partial curve]
13 | CCOc1ccc2nc(SCC#N)c(C#N)cc2c1 | 3.98 µM [rising, partial curve]
14 | O=C(Nc1ccc(N2CCN(C(=O)c3ccccc3)CC2)cc1)c1cc2ccccc2o1 | 5.01 µM [falling, single point]
15 | COC(=O)C1CCN(c2nc3ccccc3nc2C(C#N)C(=O)OCC(C)C)CC1 (stereo not drawn) | 10 µM [rising, partial curve]
16 | CCCCNc1ncnc2c1cnn2-c1ccc(Cl)cc1 | 7.94 µM [rising, partial curve]
17 | COc1ccc(OCCSc2nnc3sc4ccccc4n23)cc1 | 0.794 µM [rising, full curve]
18 | O=c1ccnc(S/C=C/c2ccccc2)[nH]1 | 0.126 µM [falling, full curve]
19 | O=c1c(O)c(-c2cccc(O)c2)oc2ccccc12 | 12.6 µM [rising, single point]
20 | O=C(Sc1nnc(-c2ccccc2)o1)N1c2ccccc2Sc2ccccc21 | 1.26 µM [falling, partial curve]
21 | C=CCn1sc(N)c(C(=O)OCC)c1=S | 5.01 µM [falling, single point]
22 | O=c1ccc2cc(O)c(O)cc2o1 | 10 µM [rising, partial curve]
23 | COC(=O)c1[nH]c2cccc(Cl)c2c1NC(=O)CN1CCCCC1C (stereo not drawn) | 0.01 µM [falling, full curve]

Row | SMILES | AC50
24 | COc1ccc(C2=CC(c3ccc(OC)c(OC)c3)n3nnnc3N2)c(OC)c1 (stereo not drawn) | 12.6 µM [rising, partial curve]
25 | Cc1cccc(NC(=O)CCn2ccnc2C)c1 | 25.1 µM [falling, single point]
26 | Nc1nc(NCc2ccccc2)nc(-c2ccccc2)n1 | 10 µM [rising, partial curve]
27 | COc1ccc(-c2ccc(-c3noc(-c4ccc(OC)c(OC)c4)n3)c(OC)n2)cc1 | 10 µM [rising, single point]
28 | Cc1cccc(Cn2cnc3c(nnn3Cc3ccccc3F)c2=O)c1 | 10 µM [rising, partial curve]
29 | O=c1c(-c2ccc(F)cc2)nc2cnc(Oc3ccccc3)nc2n1Cc1cccs1 | 12.6 µM [rising, partial curve]
30 | COc1ccccc1NC(=O)CS(=O)(=O)c1cccc2nsnc12 | 3.16 µM [rising, single point]
31 | COc1ccc(/C=N/n2c(SC)nnc2-c2ccccc2)cc1C | 10 µM [rising, partial curve]
32 | O=C(O)CSc1nnc2c3ccccc3c3ccccc3c2n1 | 1 µM [falling, partial curve]
33 | CCNc1ncc2nc(-c3cc(F)cc(F)c3)c(=O)n(C[C@H]3CCCO3)c2n1 | 0.398 µM [rising, full curve]
34 | CCOC(=O)N1CCN(C(=O)C2CCN(S(=O)(=O)N(CC)CC)CC2)CC1 | 25.1 µM [rising, single point]
35 | CC1(C)Cc2cccc(OCC(=O)N3CCN(S(=O)(=O)c4ccc(F)cc4)CC3)c2O1 | 5.01 µM [falling, partial curve]
36 | C/C(=N\O)C(=O)NCC1CCNCC1 | 25.1 µM [falling, partial curve, poor fit]
37 | CCOc1ccc(C(C)=O)cc1Cn1nc(C(=O)O)c2ccccc2c1=O | 7.94 µM [rising, partial curve]
38 | Cn1c(-n2c(CCN3C(=O)c4ccccc4C3=O)nc3ccccc3c2=O)nc2ccccc21 | 1.58 µM [rising, full curve, poor fit]
39 | CCn1cc(CNC(=O)c2cc(Cl)ccc2OC)c(C)n1 | 1.58 µM [rising, partial curve]
40 | CCOC(=O)c1cnn(-c2ccccn2)c1N | 10 µM [falling, partial curve]
41 | Cc1nn(-c2ccccc2)c2sc(C(=O)O)cc12 | 3.98 µM [rising, full curve]
42 | O=C(CN(C1CCCCC1)S(=O)(=O)c1ccc(F)cc1)NC1CC1 | 0.00316 µM [falling, full curve, poor fit]
43 | Cc1cccc(N2CCN(C(=O)c3ccc(NC(=O)C4CCCO4)cc3)CC2C)c1 (stereo not drawn) | 0.251 µM [falling, partial curve, poor fit]
44 | CCOC(=O)c1ccc(N2C(=O)c3n[nH]c(C)c3C2c2ccc(OC)cc2OC)cc1 (stereo not drawn) | 10 µM [rising, single point]
45 | O=C1CSC(c2cn(-c3ccccc3)nc2-c2ccc3c(c2)OCCO3)N1CCN1CCOCC1 (stereo not drawn) | 7.94 µM [rising, partial curve]
46 | CC(=O)c1c(NCCc2ccccc2)cc(C)oc1=O | 12.6 µM [rising, single point]

Row | SMILES | AC50
47 | N#Cc1cccc(-c2nc(NCc3ccccc3)c3ccccc3n2)c1 | 5.01 µM [rising, single point]
48 | Cc1noc(C)c1-c1cc(Nc2ccc(F)cc2)ncn1 | 5.01 µM [rising, partial curve]
49 | COc1ccc(CNc2ncnc3ccc(-c4ccccc4OC)cc23)c(OC)c1 | 7.94 µM [rising, partial curve]
50 | Cc1cc(NC(=O)C2CCN(S(=O)(=O)c3cnc[nH]3)CC2)ccc1Br | 5.01 µM [rising, single point]
51 | Cc1ccc(S(=O)(=O)CCC(=O)OCC(=O)Nc2ncc(Cl)cc2Cl)cc1 | 0.00316 µM [falling, full curve, poor fit]
52 | c1ccc(Cn2c(CSc3nnnn3-c3ccccc3)nc3ccccc32)cc1 | 3.98 µM [rising, partial curve]
53 | O=C(Nc1c(C(=O)Nc2cccc(F)c2)oc2ccccc12)c1ccc2c(c1)OCO2 | 3.98 µM [rising, partial curve]
54 | C[C@@H](C(=O)NCc1ccccc1)[C@H]1C[C@]1(C)[C@H](NC(=O)OCc1ccccc1)c1ccccc1 | 3.98 µM [falling, partial curve]
55 | CCOc1cc2c(cc1OCC)C(c1cc(OC)c(O)c(OC)c1)NCC2 (stereo not drawn) | 12.6 µM [rising, partial curve]
56 | Cc1cc2n(n1)C(c1ccc(N(C)C)cc1)Nc1ccccc1-2 (stereo not drawn) | 10 µM [rising, partial curve]
57 | CCc1nc2c(n1O)CCc1nonc1-2 | 1.26 µM [rising, partial curve, poor fit]
58 | COc1ncc2nc(-c3cccs3)c(=O)n(CCc3ccccc3)c2n1 | 3.16 µM [rising, partial curve]
59 | COC(=O)[C@@]1(Cc2ccc(OC)cc2)[C@H]2c3cc(C(=O)N4CCCC4)n(CCO)c3C[C@H]2CN1C(=O)c1ccccc1 | 0.398 µM [rising, full curve, poor fit]
60 | COCCNc1oc(COc2cccc(C)c2)nc1C#N | 12.6 µM [falling, partial curve]
61 | Cc1occc1C(=O)N1CCN(c2ccc(Cl)c(Cl)c2)CC1 | 10 µM [falling, single point]
62 | COc1nc(/C(N)=N/O)nc(N2CCCCC2)n1 | 10 µM [rising, partial curve]
63 | COc1ccc(N2CCN(c3oc(-c4ccccc4OC)nc3C#N)CC2)cc1 | 10 µM [rising, partial curve]
64 | O=C(c1ccncc1)N(Cc1ccccc1)Cc1nc2ccccc2c(=O)[nH]1 | 12.6 µM [rising, single point]
65 | COc1cc2c(cc1OC)CN(C(=O)CCCN1C(=O)c3ccccc3C1=O)CC2 | 10 µM [falling, partial curve]
66 | O=C(c1ccccc1C(=O)N1CCN(c2ccc(F)cc2)CC1)N1CCN(c2ccc(F)cc2)CC1 | 15.8 µM [falling, single point]
67 | O=C(O)C1CC(c2ccccc2F)=NO1 (stereo not drawn) | 12.6 µM [falling, partial curve]
68 | O=C(O)c1ccc(CN2C(=O)c3ccccc3S2(=O)=O)cc1 | 10 µM [rising, partial curve]

Some of the entries so far, as comma-separated lines.
Row,SMILES,AC50
48,Cc1noc(C)c1-c1cc(Nc2ccc(F)cc2)ncn1,"5.01 µM [rising, partial curve]"
49,COc1ccc(CNc2ncnc3ccc(-c4ccccc4OC)cc23)c(OC)c1,"7.94 µM [rising, partial curve]"
50,Cc1cc(NC(=O)C2CCN(S(=O)(=O)c3cnc[nH]3)CC2)ccc1Br,"5.01 µM [rising, single point]"
51,Cc1ccc(S(=O)(=O)CCC(=O)OCC(=O)Nc2ncc(Cl)cc2Cl)cc1,"0.00316 µM [falling, full curve, poor fit]"
52,c1ccc(Cn2c(CSc3nnnn3-c3ccccc3)nc3ccccc32)cc1,"3.98 µM [rising, partial curve]"
53,O=C(Nc1c(C(=O)Nc2cccc(F)c2)oc2ccccc12)c1ccc2c(c1)OCO2,"3.98 µM [rising, partial curve]"
54,C[C@@H](C(=O)NCc1ccccc1)[C@H]1C[C@]1(C)[C@H](NC(=O)OCc1ccccc1)c1ccccc1,"3.98 µM [falling, partial curve]"
55,CCOc1cc2c(cc1OCC)C(c1cc(OC)c(O)c(OC)c1)NCC2 (stereo not drawn),"12.6 µM [rising, partial curve]"
56,Cc1cc2n(n1)C(c1ccc(N(C)C)cc1)Nc1ccccc1-2 (stereo not drawn),"10 µM [rising, partial curve]"
57,CCc1nc2c(n1O)CCc1nonc1-2,"1.26 µM [rising, partial curve, poor fit]"
58,COc1ncc2nc(-c3cccs3)c(=O)n(CCc3ccccc3)c2n1,"3.16 µM [rising, partial curve]"
59,COC(=O)[C@@]1(Cc2ccc(OC)cc2)[C@H]2c3cc(C(=O)N4CCCC4)n(CCO)c3C[C@H]2CN1C(=O)c1ccccc1,"0.398 µM [rising, full curve, poor fit]"
60,COCCNc1oc(COc2cccc(C)c2)nc1C#N,"12.6 µM [falling, partial curve]"
61,Cc1occc1C(=O)N1CCN(c2ccc(Cl)c(Cl)c2)CC1,"10 µM [falling, single point]"
62,COc1nc(/C(N)=N/O)nc(N2CCCCC2)n1,"10 µM [rising, partial curve]"
63,COc1ccc(N2CCN(c3oc(-c4ccccc4OC)nc3C#N)CC2)cc1,"10 µM [rising, partial curve]"
64,O=C(c1ccncc1)N(Cc1ccccc1)Cc1nc2ccccc2c(=O)[nH]1,"12.6 µM [rising, single point]"
65,COc1cc2c(cc1OC)CN(C(=O)CCCN1C(=O)c3ccccc3C1=O)CC2,"10 µM [falling, partial curve]"
66,O=C(c1ccccc1C(=O)N1CCN(c2ccc(F)cc2)CC1)N1CCN(c2ccc(F)cc2)CC1,"15.8 µM [falling, single point]"
67,O=C(O)C1CC(c2ccccc2F)=NO1 (stereo not drawn),"12.6 µM [falling, partial curve]"
68,O=C(O)c1ccc(CN2C(=O)c3ccccc3S2(=O)=O)cc1,"10 µM [rising, partial curve]"
